Data taken from ChEMBL document CHEMBL3988442, “University of Dundee, Small-Polar-MMV Screening Library” (2021).

Each number is a percent effect as filed. How 0% and 100% were set is not recorded. Most values in the screen are low, and negative values occur. This is an unselected part of the compounds tested. A dash means the value is not listed here; it may have been measured.

A: 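Whole-cell assay for inhibitors of Mycobacterium tuberculosis growth, labelled Cornell in the record; the read-out is not stated. The concentration is filed as 10 mM, unlikely as a test dose, so the dose is not known. The record gives no direction; compounds strong in two other growth screens of this library score well above the rest, so higher reads as stronger inhibition. Of about 53,000 compounds tested this way, about 900 (1.7%) reached 50% or more in at least one test.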
B: 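Assay on Mycobacterium tuberculosis, filed only as a heat shock assay from Cornell; the read-out is not stated. The concentration is filed as 10 mM, unlikely as a test dose, so the dose is not known. Higher reads as stronger inhibition (inferred: compounds with an IC50 in retests scored well above the rest). About 69,000 compounds were tested under these conditions; 1.4% (about 930) showed 50% or more at least once.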

| structure | A | B |
|---|---|---|
| `Cc1nccc(-c2ccccc2)c1C(=O)N1CCC2(CCCO2)CC1` | -8.49 | -12.31 |
| `Cc1ccc(F)cc1S(=O)(=O)NCc1cccc(CS(C)(=O)=O)c1` | 27.12 | -9.806 |
| `CN1CC(C(=O)NC(C)(C)CNC(=O)OC(C)(C)C)CC1=O` (stereo not drawn) | - | -7.736 |
| `O=C(Nc1cccc(CN2CCC(CO)CC2)c1)c1cc(Cl)c[nH]1` | -16.48 | -23.93 |
| `CCc1cn[nH]c1C1CCCN(C(=O)c2cnc(NC(C)C)nc2)C1` (stereo not drawn) | 7.673 | -19.94 |
| `Cc1cc(C)n(-c2ccc(N3CCC(O)CC3)nc2)n1` | - | 7.199 |
| `CN(C)CCN(C)C(=O)Cc1ccc2c(c1)OCCO2.O=C(O)CC(O)(CC(=O)O)C(=O)O` | - | -22.79 |
| `N#Cc1ccsc1NC(=O)CN1CCOC(Cn2cccn2)C1` (stereo not drawn) | - | 0.7465 |
| `CCc1n[nH]c(C2CN(C(=O)c3cnc(C)nc3CC)CCO2)n1` (stereo not drawn) | - | 0.1685 |
| `CNc1cccc(C2CCCN(Cc3ncc[nH]3)C2)n1` (stereo not drawn) | -6.287 | 1.562 |
| `O=C(O)C(F)(F)F.[H][C@@]12CCN(C(=O)c3cnoc3C)[C@@]1([H])CC(=O)N2Cc1cccnc1` | 11.81 | 26.27 |
| `CCc1n[nH]c(C2CN(C(=O)c3cc4c(s3)CCCC4)CCO2)n1` (stereo not drawn) | -19.47 | 16.21 |
| `CC1CCC(NC(=O)NCC(C)(C)CCS(C)(=O)=O)CC1` (stereo not drawn) | 38.64 | -0.4594 |
| `O=C(Cc1cccc(F)c1)NCCNCc1cccc(O)c1` | 6.589 | 0.6817 |
| `CCc1nc(CNCCn2cc(C)cn2)no1` | - | -12.68 |
| `CCN(CC)S(=O)(=O)NC(C)C(=O)N(C)C` (stereo not drawn) | 17.05 | 7.23 |
| `Cn1c(-c2cccs2)nn(CCNS(=O)(=O)c2ccccc2Cl)c1=O` | 6.198 | 14.22 |
| `O=C(O)C(F)(F)F.O=C(O)C(F)(F)F.[H][C@@]12CCCO[C@]1([H])[C@H](N(C)Cc1ccco1)CN(CCOC)C2` | - | 1.752 |
| `CCC(=O)N1CCCN(C(=O)c2cc(C)cc(Br)c2O)CC1` | - | -23.73 |
| `CCc1c(C)sc2c1c(N)nc(=O)n2CCN1CCOCC1` | 31.32 | 21.83 |
| `Cc1cccc(CNC(=O)NCC2CCN(Cc3ncc[nH]3)C2)c1` (stereo not drawn) | 26.47 | 11.37 |
| `Cc1cc(CN2CCC(CNC(=O)C3(c4ccccc4)CC3)C2)[nH]n1` (stereo not drawn) | 14.66 | -9.854 |
| `CCN(CC(F)(F)F)C(=O)C1CCCN(Cc2ccccn2)C1` (stereo not drawn) | 12.37 | 25.78 |
| `O=C1OCCCN1Cc1nc(-c2ccncc2)no1` | 12.68 | -13.07 |
| `O=C(O)CSc1nnc(-c2cn[nH]c2)n1-c1ccccc1Cl` | - | -20.97 |
| `Nc1nnc(SCc2cc(=O)n3c4c(sc3n2)CCCC4)s1` | 16.41 | 19.97 |
| `CC(CS(C)(=O)=O)NCc1cc(Cl)ccc1F` (stereo not drawn) | -7.989 | -12.53 |
| `O=C(Cc1cccs1)NC1CCN(c2cccc(F)c2)CC1` | 13.67 | 7.571 |
| `CNC(=O)CCN1CCCC1c1ccccc1Br` (stereo not drawn) | 0.6072 | -16.23 |
| `[H][C@]12CC[C@]([H])(CN(C(=O)N(C)C)C1)N(C(=O)Cc1c(C)nc(C)[nH]c1=O)C2` | -16.62 | -10.88 |
| `CNC(=O)C(CC(C)C)NC(=O)c1cccc(-c2n[nH]c(C)n2)c1` (stereo not drawn) | - | 24.73 |
| `CC(C)Cn1cncc1CNC(=O)c1cccc(CC2CCNCC2)c1` | -10.8 | -17.32 |
| `CC(C)N1C(=O)CN(CCCO)CC1(C)C` | 12.98 | -0.1601 |
| `COCCN1CCC(NCc2c(C)nn(C)c2N(C)C)CC1` | 41.21 | -9.103 |
| `COc1c(C2CCCN2Cc2nnc(C3CC3)o2)c(C)nn1C` (stereo not drawn) | - | 8.843 |
| `CCOc1ccnc(N2CCN(C(=O)C(C)(C)C#N)CC2)n1` | 13.23 | -30.05 |
| `CCc1nc(C2CCCN(C(=O)c3ccc(O)nc3)C2)no1` (stereo not drawn) | - | -6.692 |
| `O=C(NCCc1coc(-c2ccc(F)cc2)n1)NC1CCC(O)CC1` (stereo not drawn) | - | -10.87 |
| `O=C(NCc1nncn1C1CC1)c1ccccc1Oc1cccnc1` | 12.17 | -14.22 |
| `CC(C)NC(=O)COc1nc(C(C)(C)C)no1` | - | -12.23 |
| `Cn1c(CN2CCCC(c3noc(C4CC4)n3)C2)cc(=O)n(C)c1=O` (stereo not drawn) | -7.126 | 28.78 |
| `Cc1ccc(N2C[C@@H](CN3CCOCC3)[C@@H](CO)C2)nn1` | 18.45 | -16.52 |
| `COCCCN1CCN(CCOC)C(C)C1` (stereo not drawn) | - | -16.68 |
| `CS(=O)(=O)c1ccc(CNC[C@H]2COCc3nc4ccccc4n32)cc1` | - | 4.124 |
| `[H][C@@]12C[C@H](c3noc(C)n3)O[C@]1([H])CCN(C(=O)c1ccc(C)o1)C2` | 3.527 | -20.51 |
| `O=C(O)C(F)(F)F.O=C(O)C(F)(F)F.[H][C@@]12COC[C@H](C(=O)NCc3ccco3)[C@]1([H])CN(Cc1ccccn1)C2` | -34.63 | -5.073 |
| `Cc1occc(=O)c1OCC(=O)N1CCN(c2cccc(Cl)c2)CC1` | 48.86 | 2.24 |
| `O=C(c1cnc(NCC2CCCO2)c(Cl)c1)N1CCCCC1` (stereo not drawn) | -6.734 | -21.82 |
| `N#CC1(NC(=O)c2ccc(-c3nc(C4CC4)n[nH]3)cc2)CCSC1` (stereo not drawn) | -19.71 | 5.534 |

For reference, 5 entries once more:

structure,A,B
CCN(CC)S(=O)(=O)NC(C)C(=O)N(C)C (stereo not drawn),17.05,7.23
Cn1c(-c2cccs2)nn(CCNS(=O)(=O)c2ccccc2Cl)c1=O,6.198,14.22
O=C(Cc1cccs1)NC1CCN(c2cccc(F)c2)CC1,13.67,7.571
CC(CS(C)(=O)=O)NCc1cc(Cl)ccc1F (stereo not drawn),-7.989,-12.53
O=C(O)C(F)(F)F.O=C(O)C(F)(F)F.[H][C@@]12COC[C@H](C(=O)NCc3ccco3)[C@]1([H])CN(Cc1ccccn1)C2,-34.63,-5.073